According to US6372742B1, “Substituted indole compounds and methods of their use” (Geron Corporation, priority 1999, dated 2002):
Some results were stated once for a whole list of compounds, not compound by compound.

Chains of the proteins cited; added tags and fusions are not shown. Lines headed by an entry give the natural chain unless they say otherwise; changes in a name come on top.
UniProt O14746: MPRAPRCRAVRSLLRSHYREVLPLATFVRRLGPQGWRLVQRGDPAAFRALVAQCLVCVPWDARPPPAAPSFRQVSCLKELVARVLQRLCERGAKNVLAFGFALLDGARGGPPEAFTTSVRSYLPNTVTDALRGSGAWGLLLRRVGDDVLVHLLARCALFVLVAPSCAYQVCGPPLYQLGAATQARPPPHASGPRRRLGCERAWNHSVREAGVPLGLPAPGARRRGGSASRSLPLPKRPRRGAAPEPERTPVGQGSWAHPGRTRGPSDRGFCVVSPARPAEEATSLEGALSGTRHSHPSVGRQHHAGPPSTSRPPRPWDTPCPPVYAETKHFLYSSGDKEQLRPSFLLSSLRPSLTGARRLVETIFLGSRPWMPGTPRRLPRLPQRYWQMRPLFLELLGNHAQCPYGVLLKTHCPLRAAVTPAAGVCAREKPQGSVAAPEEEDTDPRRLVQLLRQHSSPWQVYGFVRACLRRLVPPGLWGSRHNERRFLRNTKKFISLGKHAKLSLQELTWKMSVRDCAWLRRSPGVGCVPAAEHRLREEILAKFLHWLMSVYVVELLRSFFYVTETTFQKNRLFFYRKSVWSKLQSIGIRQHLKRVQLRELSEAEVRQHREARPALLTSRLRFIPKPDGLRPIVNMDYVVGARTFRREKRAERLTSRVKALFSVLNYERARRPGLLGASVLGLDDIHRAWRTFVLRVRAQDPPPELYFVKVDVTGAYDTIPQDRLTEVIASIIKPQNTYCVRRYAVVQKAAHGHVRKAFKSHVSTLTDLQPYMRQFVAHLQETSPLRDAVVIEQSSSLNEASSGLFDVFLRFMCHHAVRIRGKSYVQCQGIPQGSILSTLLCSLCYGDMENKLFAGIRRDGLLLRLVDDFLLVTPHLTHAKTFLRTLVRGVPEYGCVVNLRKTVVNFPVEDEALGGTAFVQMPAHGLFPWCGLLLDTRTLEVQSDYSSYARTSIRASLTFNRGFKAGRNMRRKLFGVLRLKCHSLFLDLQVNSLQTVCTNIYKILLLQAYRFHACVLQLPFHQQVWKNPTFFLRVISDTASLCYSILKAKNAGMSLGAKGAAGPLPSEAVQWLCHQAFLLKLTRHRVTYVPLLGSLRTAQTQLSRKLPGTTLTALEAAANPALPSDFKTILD

Biological target: T1, telomerase (Homo sapiens, UniProt O14746)
T1 construct: made in house; host or cells: 293 cells over-expressing hTERT
Experiment: Bio-Tel FlashPlate telomerase activity assay
Assay type: biochemical
Conditions: affinity-purified telomerase extract from 293 cells over-expressing hTERT; 30 min preincubation, 90 min at 37° C.

SMILES | IC50
CCOC(=O)c1ccc(Cn2cc(/C=C3\SC(=O)NC3=O)c3cc(OCc4ccccc4)ccc32)cc1 [Example 45, 5-benzyloxy-N-(4-ethoxycarbonylbenzyl)-3-(2,4-dioxo-thiazolidin-5-ylidene-methyl)-indole] | < 100 µM
O=C1NC(=O)/C(=C/c2cn(Cc3ccc(C(=O)N4CCCCC4)cc3)c3ccc(OCc4ccccc4)cc23)S1 [Example 46, 5-benzyloxy-N-(4-piperidinocarbonylbenzyl)-3-(2,4-dioxo-thiazolidin-5-ylidene-methyl)-indole] | < 100 µM
Nc1ccc2c(c1)c(/C=C1\SC(=O)NC1=O)cn2Cc1ccc(Cl)c(Cl)c1 [Example 47, 5-amino-N-(3,4-dichlorobenzyl)-3-(2,4-dioxo-thiazolidin-5-ylidene-methyl)-indole] | < 100 µM
O=C1NC(=O)/C(=C/c2cn(Cc3ccc(Cl)c(Cl)c3)c3ccc(NC(=O)c4ccc(Cl)c(Cl)c4)cc23)S1 [Example 48, 5-(3,4-dichlorobenzoylamino)-N-(3,4-dichlorobenzyl)-3-(2,4-dioxo-thiazolidin-5-ylidenemethyl)-indole] | < 100 µM
O=C(Nc1ccc(Cl)c(Cl)c1)Nc1ccc2c(c1)c(/C=C1\SC(=O)NC1=O)cn2Cc1ccc(Cl)c(Cl)c1 [Example 49, 5-[N′-(3,4-dichlorophenyl)ureido]-N-(3,4-dichlorobenzyl)-3-(2,4-dioxo-thiazolidin-5-ylidenemethyl)-indole] | < 100 µM
COc1ccc(NC(=O)Nc2ccc3c(c2)c(/C=C2\SC(=O)NC2=O)cn3Cc2ccc(Cl)c(Cl)c2)c(OC)c1 [Example 50, 5-[N′-(2,4-dimethoxyphenyl)ureido]-N-(3,4-dichlorobenzyl)-3-(2,4-dioxo-thiazolidin-5-ylidenemethyl)-indole] | < 100 µM
O=C1NC(=O)/C(=C/c2cn(Cc3ccc(Cl)c(Cl)c3)c3ccc(NC(=O)c4ccccc4)cc23)S1 [Example 51, 5-benzoylamino-N-(3,4-dichlorobenzyl)-3-(2,4-dioxo-thiazolidin-5-ylidenemethyl)-indole] | < 100 µM
O=C(O)CCC(=O)Nc1ccc2c(c1)c(/C=C1\SC(=O)NC1=O)cn2Cc1ccc(Cl)c(Cl)c1 [Example 52, 5-succinamido-N-(3,4-dichlorobenzyl)-3-(2,4-dioxo-thiazolidin-5-ylidenemethyl)-indole] | < 100 µM
O=C1NC(=O)/C(=C/c2cn(Cc3ccc(Cl)c(Cl)c3)c3ccc(NC(=O)c4cc(Cl)c(Cl)cc4C(=O)O)cc23)S1 [Example 53, 5-(3,4-dichlorophthalamido)-N-(3,4-dichlorobenzyl)-3-(2,4-dioxo-thiazolidin-5-ylidenemethyl)-indole] | < 100 µM
O=C1NC(=O)/C(=C/c2cn(-c3ccc(/C=C4/SC(=O)NC4=O)cc3)c3ccc(OCc4ccccc4)cc23)S1 [Example 54, 5-benzyloxy-N-[4-(2,4-dioxo-thiazolidin-5-ylidenemethyl)phenyl]-3-(2,4-dioxo-thiazolidin-5-ylidenemethyl)-indole] | < 100 µM
COc1ccc2c(c1)c(/C=C1\SC(=O)NC1=O)cn2-c1ccc(/C=C2/SC(=O)NC2=O)cc1 [Example 55, 5-methoxy-N-[4-(2,4-dioxo-thiazolidin-5-ylidenemethyl)phenyl]-3-(2,4-dioxo-thiazolidin-5-ylidenemethyl)-indole] | < 100 µM
